Tests used:
[1] = In vitro permeability experiment, MDCK wild type cells; details: dog
Experimental: (§1) In vitro passive permeability or the ability to serve as a P-glycoprotein (P-gp) transport substrate was tested using MDCK cells (MDCK wild type) or MDCK cells stably transduced with MDRI (MDCK-MDRI), respectively. The permeability experiment was performed in duplicate in a transwell system at a single concentration (5 μM). The cells were incubated for […] Apical-to-basolateral (A to B, A-B) transport and basolateral-to-apical (B to A, B-A) transport of the corresponding compound were determined, and the permeation rate (apparent permeability) (Papp×10^−6 cm/sec) and efflux ratio (Papp (B−A)/Papp (A−B)) of the test compound were calculated.

[2] = tested on: P-glycoprotein (P-gp, MDR1); assay: in vitro; details: dog
Experimental: as §1

## CC(C)NCC(O)COc1ccc(CC(N)=O)cc1 (centres unmarked) [Atenolol, atenolol]
[1]; Papp A-B Mean, MDCK-Wild type, mean
  Papp A→B at 90 min, 5 µM: 0.51 ×10⁻⁶ cm/s
[1]; Papp A-B Sample - 01, MDCK-Wild type, replicate 01
  Papp A→B at 90 min, 5 µM: 0.52 ×10⁻⁶ cm/s
[1]; Papp A-B Sample - 02, MDCK-Wild type, replicate 02
  Papp A→B at 90 min, 5 µM: 0.49 ×10⁻⁶ cm/s
[1]; Papp B-A Mean, MDCK-Wild type, mean
  Papp B→A at 90 min, 5 µM: 1.01 ×10⁻⁶ cm/s
[1]; Papp B-A Sample - 01, MDCK-Wild type, replicate 01
  Papp B→A at 90 min, 5 µM: 1.02 ×10⁻⁶ cm/s
[1]; Papp B-A Sample - 02, MDCK-Wild type, replicate 02
  Papp B→A at 90 min, 5 µM: 1.01 ×10⁻⁶ cm/s
[2]; MDCK-MDR1, Papp A-B Sample - 01
  Papp A→B: 0.93 ×10⁻⁶ cm/s
[2]; MDCK-MDR1, Papp A-B Sample - 02
  Papp A→B: 0.91 ×10⁻⁶ cm/s
[2]; MDCK-MDR1, Papp B-A Mean
  Papp B→A: 0.91 ×10⁻⁶ cm/s
[2]; MDCK-MDR1, Papp B-A Sample - 01
  Papp B→A: 0.91 ×10⁻⁶ cm/s
[2]; MDCK-MDR1, Papp B-A Sample - 02
  Papp B→A: 0.92 ×10⁻⁶ cm/s

From patent US20260001879A1, “COMPOUNDS AS MYT1 INHIBITORS” (WIGEN BIOMMEDICINE TECHNOLOGY (SHANGHAI) CO., LTD., priority 2022, published 2026)
